Consider three molecules from publication doi:10.1101/2022.12.21.520923 (bioRxiv, 2022).

Chains of the proteins cited; added tags and fusions are not shown. Residues count along the entry.
UniProt Q13596: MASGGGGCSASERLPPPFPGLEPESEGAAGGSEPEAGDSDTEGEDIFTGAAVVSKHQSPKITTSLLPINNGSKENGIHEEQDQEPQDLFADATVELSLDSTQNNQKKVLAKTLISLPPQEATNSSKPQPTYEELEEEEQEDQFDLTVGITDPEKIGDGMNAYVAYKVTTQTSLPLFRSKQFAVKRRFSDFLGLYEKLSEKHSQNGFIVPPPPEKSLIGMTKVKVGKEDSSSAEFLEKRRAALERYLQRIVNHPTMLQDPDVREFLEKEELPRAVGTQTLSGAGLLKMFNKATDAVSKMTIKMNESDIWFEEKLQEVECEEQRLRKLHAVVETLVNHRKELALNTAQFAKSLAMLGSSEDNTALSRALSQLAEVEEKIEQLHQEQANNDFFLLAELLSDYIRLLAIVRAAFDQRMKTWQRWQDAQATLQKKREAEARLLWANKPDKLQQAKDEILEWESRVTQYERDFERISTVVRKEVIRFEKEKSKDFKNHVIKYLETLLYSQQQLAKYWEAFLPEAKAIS
UniProt Q00610, residues 1-364: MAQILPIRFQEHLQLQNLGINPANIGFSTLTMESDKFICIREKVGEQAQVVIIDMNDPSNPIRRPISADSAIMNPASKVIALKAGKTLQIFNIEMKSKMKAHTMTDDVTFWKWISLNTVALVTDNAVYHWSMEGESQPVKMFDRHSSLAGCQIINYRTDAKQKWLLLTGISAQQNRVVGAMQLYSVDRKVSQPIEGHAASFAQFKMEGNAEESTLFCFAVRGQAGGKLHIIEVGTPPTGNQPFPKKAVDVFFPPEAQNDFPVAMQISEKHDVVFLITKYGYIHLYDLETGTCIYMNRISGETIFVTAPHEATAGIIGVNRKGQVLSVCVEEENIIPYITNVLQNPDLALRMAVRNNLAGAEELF

Test [1] deals with CHC22 clathrin heavy chain (human (endogenous in HeLa and AB1190 myotubes)) (UniProt P53675). Briefly: co-IP.
The target of another test is T1, full-length GST-p115 (UniProt O60763 1-962).
T1 sequence: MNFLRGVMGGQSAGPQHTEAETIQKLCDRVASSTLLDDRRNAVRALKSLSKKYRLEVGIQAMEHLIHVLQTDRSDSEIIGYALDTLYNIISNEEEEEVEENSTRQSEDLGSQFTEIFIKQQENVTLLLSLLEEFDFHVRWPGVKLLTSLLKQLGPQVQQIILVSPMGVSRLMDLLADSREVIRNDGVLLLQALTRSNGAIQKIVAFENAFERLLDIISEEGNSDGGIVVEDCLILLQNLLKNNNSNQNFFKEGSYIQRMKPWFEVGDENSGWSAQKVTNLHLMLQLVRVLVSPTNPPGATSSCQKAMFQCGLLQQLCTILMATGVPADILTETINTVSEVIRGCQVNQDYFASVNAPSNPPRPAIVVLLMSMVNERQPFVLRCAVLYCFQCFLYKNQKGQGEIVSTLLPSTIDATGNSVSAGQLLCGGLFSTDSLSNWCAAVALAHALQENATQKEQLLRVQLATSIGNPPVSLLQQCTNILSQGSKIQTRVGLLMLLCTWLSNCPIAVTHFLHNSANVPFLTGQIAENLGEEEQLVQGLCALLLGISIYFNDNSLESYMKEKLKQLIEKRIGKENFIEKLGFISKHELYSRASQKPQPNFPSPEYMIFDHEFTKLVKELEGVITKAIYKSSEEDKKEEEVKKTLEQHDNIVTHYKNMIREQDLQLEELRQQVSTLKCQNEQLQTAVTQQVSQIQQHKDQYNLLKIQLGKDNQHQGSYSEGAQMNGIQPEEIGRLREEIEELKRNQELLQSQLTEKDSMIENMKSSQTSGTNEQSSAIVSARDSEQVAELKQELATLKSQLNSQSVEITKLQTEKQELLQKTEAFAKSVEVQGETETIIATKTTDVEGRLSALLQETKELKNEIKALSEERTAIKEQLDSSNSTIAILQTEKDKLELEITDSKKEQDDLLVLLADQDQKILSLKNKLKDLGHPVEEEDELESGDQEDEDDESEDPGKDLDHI
Briefly: pull-down.

For test [2], the target named is CHC22 clathrin heavy chain (human (endogenous in HeLa and AB1190 myotubes)) (UniProt P53675). As to the kind of experiment: proximity ligation.
For test [3], the target named is sfGFP-CHC22 wild-type (human) (UniProt P53675). As to the kind of experiment: co-IP.
A further test has as its target T2, sfGFP-ΔTD-CHC22 (human) (UniProt P53675).
T2 sequence: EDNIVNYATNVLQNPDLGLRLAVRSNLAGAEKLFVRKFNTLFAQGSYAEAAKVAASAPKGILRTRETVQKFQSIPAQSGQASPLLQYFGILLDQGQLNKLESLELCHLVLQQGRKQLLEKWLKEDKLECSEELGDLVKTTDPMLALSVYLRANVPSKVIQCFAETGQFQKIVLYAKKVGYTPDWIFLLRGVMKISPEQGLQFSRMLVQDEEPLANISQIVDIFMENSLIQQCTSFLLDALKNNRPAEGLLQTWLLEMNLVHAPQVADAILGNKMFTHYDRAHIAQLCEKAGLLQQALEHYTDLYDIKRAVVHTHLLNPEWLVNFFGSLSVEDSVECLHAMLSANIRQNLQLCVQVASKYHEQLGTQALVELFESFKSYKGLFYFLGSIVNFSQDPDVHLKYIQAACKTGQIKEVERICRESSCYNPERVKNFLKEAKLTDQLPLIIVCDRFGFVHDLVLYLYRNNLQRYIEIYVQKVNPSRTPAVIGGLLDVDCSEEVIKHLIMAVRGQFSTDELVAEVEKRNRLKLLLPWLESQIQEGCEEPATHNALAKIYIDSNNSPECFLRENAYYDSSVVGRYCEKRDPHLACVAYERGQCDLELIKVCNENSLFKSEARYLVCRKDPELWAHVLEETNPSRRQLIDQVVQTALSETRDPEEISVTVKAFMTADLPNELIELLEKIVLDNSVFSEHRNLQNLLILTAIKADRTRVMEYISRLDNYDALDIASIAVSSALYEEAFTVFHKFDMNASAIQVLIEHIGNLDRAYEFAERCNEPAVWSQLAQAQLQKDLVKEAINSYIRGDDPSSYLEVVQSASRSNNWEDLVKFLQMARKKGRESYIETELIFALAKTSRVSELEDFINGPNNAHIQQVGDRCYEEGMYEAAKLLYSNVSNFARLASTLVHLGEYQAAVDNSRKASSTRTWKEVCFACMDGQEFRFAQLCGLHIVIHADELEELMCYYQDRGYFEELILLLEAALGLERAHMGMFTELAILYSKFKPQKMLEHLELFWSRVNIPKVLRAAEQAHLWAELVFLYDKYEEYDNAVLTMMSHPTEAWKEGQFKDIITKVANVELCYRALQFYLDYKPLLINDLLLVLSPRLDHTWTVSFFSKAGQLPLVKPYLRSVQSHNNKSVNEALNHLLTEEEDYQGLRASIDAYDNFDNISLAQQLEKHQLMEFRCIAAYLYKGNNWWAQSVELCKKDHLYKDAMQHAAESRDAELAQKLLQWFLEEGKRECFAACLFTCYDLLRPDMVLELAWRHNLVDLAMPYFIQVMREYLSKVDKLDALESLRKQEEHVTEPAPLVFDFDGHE
As to the kind of experiment: co-IP.

Test [4] deals with CHC22 clathrin heavy chain (human (endogenous in HeLa and AB1190 myotubes)) (UniProt P53675). As to the kind of experiment: co-IP. The source holds these as a separate data set.

No constants are given. Whether binding was seen depends on the method and setting. For part of these data: In cells and extracts the contact can be indirect. Some binding calls cover weakened binding; strength is not graded here. For part of these data: Sequences can lack the tags named with a protein.

“SNX1 (endogenous) (from UniProt Q13596 1-522)”: the binding entry in test [1] is on record as “no binding”.
Consider “His-SUMO CHC17 terminal domain (from UniProt Q00610 1-364) (domain or fragment)”, for which the binding entry with full-length GST-p115 was “no binding (tested: 12.5 µg in 250 µl)”.

B1: p115 (endogenous) (protein, UniProt O60763 1-962)
chain: T1 sequence
As for B1, the binding result (in test [2]; in test [3]; with sfGFP-ΔTD-CHC22 (human); in test [4]) was “binds” each time.
